This is an account of results in article PMC10873339.

Sequences of proteins named here, by UniProt entry; tags and fusion partners are left off. Residues count along the entry.
UniProt P28799, residues 18-593: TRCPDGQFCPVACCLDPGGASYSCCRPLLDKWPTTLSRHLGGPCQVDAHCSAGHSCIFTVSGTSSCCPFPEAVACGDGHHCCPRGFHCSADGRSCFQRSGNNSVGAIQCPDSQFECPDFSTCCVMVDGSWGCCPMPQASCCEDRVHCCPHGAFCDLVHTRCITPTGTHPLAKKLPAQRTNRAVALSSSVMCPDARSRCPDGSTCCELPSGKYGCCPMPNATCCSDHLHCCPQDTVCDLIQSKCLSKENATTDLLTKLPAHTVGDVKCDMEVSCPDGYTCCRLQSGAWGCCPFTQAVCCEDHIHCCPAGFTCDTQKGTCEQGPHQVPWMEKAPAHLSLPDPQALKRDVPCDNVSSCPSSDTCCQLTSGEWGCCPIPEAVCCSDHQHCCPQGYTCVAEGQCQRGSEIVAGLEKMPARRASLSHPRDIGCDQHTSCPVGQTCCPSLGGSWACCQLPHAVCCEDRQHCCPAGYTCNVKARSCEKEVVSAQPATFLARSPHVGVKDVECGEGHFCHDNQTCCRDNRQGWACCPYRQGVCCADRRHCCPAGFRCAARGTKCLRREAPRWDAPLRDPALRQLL

These are yes or no findings as the source states them, for the method shown. In cells and extracts the contact can be indirect. Some entries that bind do so weakly or less than the wild type. Tags and fused reporters may be left off the sequences shown.

This experiment deals with FLAG-PGRN (progranulin) (UniProt P28799). The experiment in a line: co-IP; HEK293T cells transfected with FLAG-PGRN and non-tagged human GBA; lysed in 50 mM Tris-HCl pH 7.5, 150 mM NaCl, 0.5% Triton X-100; supernatant incubated with anti-FLAG M2 Affinity Gel overnight at 4 °C; five washes with 0.1% Triton X-100 buffer; blots with anti-GCase and anti-FLAG.

B1: non-tagged human GBA (beta-glucocerebrosidase, GCase) (enzyme, UniProt P04062 40-536)
chain: ARPCIPKSFGYSSVVCVCNATYCDSFDPPTFPALGTFSRYESTRSGRRMELSMGPIQANHTGTGLLLTLQPEQKFQKVKGFGGAMTDAAALNILALSPPAQNLLLKSYFSEEGIGYNIIRVPMASCDFSIRTYTYADTPDDFQLHNFSLPEEDTKLKIPLIHRALQLAQRPVSLLASPWTSPTWLKTNGAVNGKGSLKGQPGDIYHQTWARYFVKFLDAYAEHKLQFWAVTAENEPSAGLLSGYPFQCLGFTPEHQRDFIARDLGPTLANSTHHNVRLLMLDDQRLLLPHWAKVVLTDPEAAKYVHGIAVHWYLDFLAPAKATLGETHRLFPNTMLFASEACVGSKFWEQSVRLGSWDRGMQYSHSIITNLLYHVVGWTDWNLALNPEGGPNWVRNFVDSPIIVDITKDTFYKQPMFYHLGHFSKFIPEGSQRVGLVASQKNDLDAVALMHPDGSAVVVVLNRSSKDVPLTIKDPAVGFLETISPGYSIHTYLWRRQ
B1: the binding result was “binds”.
